Laboratory results published in patent US7041470B2, “Method of assaying the susceptibility of biofilms to anti-microbial agents” (University Technologies International, Inc., priority 1996, dated 2006).

Experiments:
Details in all cases: 490 nm
[1] = test system: Escherichia coli planktonic bacteria; assay: Escherichia coli planktonic bacteria, optical density reading of turbidity; assay type: cell-based
Procedure: (§1) Up to 8 different antibiotics or biocides can be tested by using 1 row (A-H) for each antimicrobial reagent. […] Rinse the remaining projections in PBS using a troughed vessel 20 and place the colonized projections into the 96 well antibiotic plate and incubate overnight at 37° C.

staph. aureus biofilm = assay: staph. aureus biofilm, optical density reading of turbidity; assay type: cell-based, staphylococcus aureus
Procedure: Up to 8 different antibiotics or biocides can be tested by using 1 row (A-H) for each antimicrobial reagent. […] Rinse the remaining projections in PBS using a troughed vessel 20 and place the colonized projections into the 96 well antibiotic plate and incubate overnight at 37° C. […] (3) From the freshly sonicated plate remove 0.02 ml of the medium from each well and spot plate neat; and 0.025 ml from each well to prepare a serial dilution (10^−1 to 10^−6) and spot plate 0.02 ml (dilutions can be done in microtiter plates, one for each antibiotic). Place the plate containing the remaining medium and bacteria to incubate at 37° C., overnight. Day 4: Assay the sessile survival, by for example reading the plate incubated overnight at 490 nm or by counting the colonies on the plates to determine the actual number of surviving bacteria, or by using some other method known in the art.

[2] = test system: staph. aureus planktonic bacteria; assay: staph. aureus planktonic bacteria, optical density reading of turbidity; assay type: cell-based, staphylococcus aureus
Procedure: as §1

[3] = well 5 of doubling dilutions, well 3: 1000 μg/mL to well 12: 2 μg/mL
[4] = well 6 of doubling dilutions, well 3: 1000 μg/mL to well 12: 2 μg/mL ([…] implied)
[5] = well 7 of doubling dilutions, well 3: 1000 μg/mL to well 12: 2 μg/mL
[6] = well 8 of doubling dilutions, well 3: 1000 μg/mL to well 12: 2 μg/mL
[7] = well 9 of doubling dilutions, well 3: 1000 μg/mL to well 12: 2 μg/mL
[8] = well 10 of doubling dilutions, well 3: 1000 μg/mL to well 12: 2 μg/mL ([…] implied)
[9] = well 11 of doubling dilutions, well 3: 1000 μg/mL to well 12: 2 μg/mL

Q: Which results are given for `O=C(O)c1cn(C2CC2)c2cc(N3CCNCC3)c(F)cc2c1=O` [G, Ciprofloxacin]?
A: optical density reading of turbidity, Escherichia coli planktonic bacteria ([1]; well 3: 1000 μg/mL antibiotic): .131; optical density reading of turbidity, Escherichia coli planktonic bacteria ([1]; well 4: 500 μg/mL antibiotic): .136; optical density reading of turbidity, Escherichia coli planktonic bacteria [1, 3]: .136; optical density reading of turbidity, Escherichia coli planktonic bacteria [1, 4]: .140; optical density reading of turbidity, Escherichia coli planktonic bacteria [1, 5]: .132; optical density reading of turbidity, Escherichia coli planktonic bacteria [1, 6]: .139; optical density reading of turbidity, Escherichia coli planktonic bacteria [1, 7]: .136; optical density reading of turbidity, Escherichia coli planktonic bacteria [1, 8]: .138; optical density reading of turbidity, Escherichia coli planktonic bacteria [1, 9]: .133; optical density reading of turbidity, Escherichia coli planktonic bacteria ([1]; well 12: 2 μg/mL antibiotic): .138; optical density reading of turbidity, staph. aureus biofilm (staph. aureus biofilm; well 3: 1000 μg/mL antibiotic): .073; optical density reading of turbidity, staph. aureus biofilm (staph. aureus biofilm; well 4: 500 μg/mL antibiotic): .072; optical density reading of turbidity, staph. aureus biofilm (staph. aureus biofilm; [3]): .073; optical density reading of turbidity, staph. aureus biofilm (staph. aureus biofilm; [4]): .778; optical density reading of turbidity, staph. aureus biofilm (staph. aureus biofilm; [5]): .822; optical density reading of turbidity, staph. aureus biofilm (staph. aureus biofilm; [6]): .793; optical density reading of turbidity, staph. aureus biofilm (staph. aureus biofilm; [7]): .121; optical density reading of turbidity, staph. aureus biofilm (staph. aureus biofilm; [8]): .071; optical density reading of turbidity, staph. aureus biofilm (staph. aureus biofilm; [9]): .072; optical density reading of turbidity, staph. aureus biofilm (staph. aureus biofilm; well 12: 2 μg/mL antibiotic): .068; optical density reading of turbidity, staph. aureus planktonic bacteria ([2]; well 3: 1000 μg/mL antibiotic): .094; optical density reading of turbidity, staph. aureus planktonic bacteria ([2]; well 4: 500 μg/mL antibiotic): .072; optical density reading of turbidity, staph. aureus planktonic bacteria [2, 3]: .077; optical density reading of turbidity, staph. aureus planktonic bacteria [2, 4]: .077; optical density reading of turbidity, staph. aureus planktonic bacteria [2, 5]: .079; optical density reading of turbidity, staph. aureus planktonic bacteria [2, 6]: .077; optical density reading of turbidity, staph. aureus planktonic bacteria [2, 7]: .077; optical density reading of turbidity, staph. aureus planktonic bacteria [2, 8]: .080; optical density reading of turbidity, staph. aureus planktonic bacteria [2, 9]: .074; optical density reading of turbidity, staph. aureus planktonic bacteria ([2]; well 12: 2 μg/mL antibiotic): .069
